Out of some 31,000 sequences screened, about 1,400 (4.5%) were called active.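 How the source made its calls: active means median seed-adjusted z-score above 1 or below -1; inactive means the rest.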 The list shows a part of the results.
Assay: Novel Modifiers of Survival Motor Neuron (SMN) Protein: Gene Identification via Genome-wide siRNA Screen;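 further: luminescence tracks full-length SMN protein made from the SMN2 reporter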
Conditions: HEK293T SMN2-luciferase reporter, siRNA knockdown, 72 h; actives lie on both sides
How it was run: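 siRNA screen, 10418 genes ×3 siRNAs; 1 pmol/well, lipid reverse transfection into HEK293T SMN2-luc reporter line. 72 h, 37 °C, 5% CO2; ONE-Glo readout. Data: neg-ctrl normalized, log10, MAD; hit = MAD >1.0 or < -1.0.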

Sequence	median seed-adjusted z-score
CAAUGGACAGAAUACACUUTT against ZNF614	inactive: 0.0971
GUCUGUAACUGAGCAAGGATT against YWHAZ	inactive: 0.721
CAUCAACAAUGAGACCAUUTT against AOC3	inactive: -0.474
GCUGUCUCUUAGUAAAUAATT against INSL3	inactive: -0.037
CACCUUCCAUGAUACCUAUTT against KCNJ5	inactive: 0.0644
CCCUGAACCUGGUACUGCATT against DOK1	inactive: 0.0532
CAAGAAGCAUUAUUACGAUTT against PPIL2	inactive: -0.467
ACAUCACCACGGGUCUGUATT against STK11	inactive: 0.348
GCAGCUCGUUGGCUCCAAATT against CLDN9	inactive: 0.398
CAUUCUUUCUAACCAUGGATT against CAPN11	inactive: -0.273
AGCUUGGGCUCACAAGAAATT against ZNF707	inactive: -0.119
GGAGUAGAAUGGAUUGCAATT against CD48	inactive: -0.0981
CCAACCACAUAACUCGAGATT against RAD51L3	inactive: 0.155
CCAGUGACUCCUAAGUUUATT against ZYX	inactive: 0.273
GGAACUUGCACAACUAGAATT against CDC2L5	inactive: 0.314
CCAAGAUUCAGGUCAUUGATT against PRPS2	inactive: 0.389
UGGUGAUCAUCAACGAGUATT against LRRTM1	inactive: -0.528
GUGUUCGUUUGGGUGCAAATT against SLC10A3	inactive: -0.25
GGAAAGAAUUCUGAAUAUATT against MEGF10	inactive: 0.622
AGGCCUGCUUAUUCACCAUTT against POLR2J2	inactive: 0.375
CGUGGUCCUUAACAUCAAATT against PCDH7	inactive: 0.192
GACUGACACGGAAUAGUGUTT against ZNF286A	inactive: 0.0368

Sequence	median seed-adjusted z-score
GUGUAAUCAUUGUGGAAAATT against ZNF569	inactive: 0.425
CCUUGUUUCUAGCAGCUAATT against CCNT1	inactive: -0.72
CCGUCGGACUGAUUGCACUTT against 3-Mar	inactive: 0.069
GGGUGGAUCAAAUAAGUUUTT against SKAP1	inactive: -0.00637
GAACGACAAGCCUUACUGUTT against PXN	inactive: -0.69
CACGAGGAGUGGACAAUAUTT against UCK1	inactive: -0.599
GGAAUUGGUUUCAGUCAAATT against RCOR1	active: -1.13
GGAAGAAGGUGUUUGAGAATT against QTRT1	inactive: 0.0708
UCCACUGCCCAAUAAAUAUTT against PYDC1	active: -1.44
CAACAGGUAUAACUACAUATT against CNDP2	inactive: 0.43
CAAUUACGAGAAACCUUAUTT against ZNF322B	inactive: 0.0433
GAAACUAUAGACAAGUUAATT against BRD1	inactive: 0.0644
CAACCAAAUUGGAUAAGUATT against B4GALT5	inactive: 0.104
GUAGCUCCGAGGUCUGAUATT against SMARCA4	inactive: 0.223
GAGUGUACCUUUUCAUGAUTT against PTDSS1	inactive: -0.76
GCUUAAAGGAGGUUACAAATT against PRTFDC1	inactive: 0.493
GGAGGAUAUGAGACAAGAATT against KRT23	inactive: -0.0696
CCUUCUUGGUGGAAUCCCATT against NGB	inactive: 0
CCAGUGAUCUGUACAACUUTT against IRF1	inactive: 0.831
GAAGAUCUGUGGACCAAAATT against KLF6	inactive: -0.0398
CCAAUUCUGAGGACUCAGATT against MAP3K12	inactive: -0.6
AACAUUCUAUUACCAAGAATT against EDF1	inactive: 0.0783

Sequence	median seed-adjusted z-score
GGAAAACGAGGAUACUUAATT against POLR1A	inactive: 0.0814
CUGCUGUAUUUAUGAGAAATT against PPP1R11	inactive: -0.498
CCUACGGACUGAACAUGAATT against NARS2	inactive: 0.505
GGUUUAAUUCAAGCACGAATT against GALNT7	inactive: -0.63
CGCACACGUAGAGACCUUATT against PNN	active: 1.29
GCAUACGCAGGAUCCUGGATT against KRT34	inactive: 0.124
GGCUAUACCUUGACCAUAATT against LRRTM3	inactive: -0.0808
CCGGUGCUAUCACAUCUAUTT against DYRK2	inactive: 0
CAGUCAACAGUGUAUGUCATT against PAQR3	inactive: -0.0384
GCUUCCAGAACUUAAGUAATT against RAB9A	inactive: 0.247
GAUGAUUACAUAUCAGAGATT against ZNF630	inactive: -0.533
GCAUGCAUUUUGUAUGAGATT against NEK11	inactive: 0.181
CUAGAGCACUUGGACCUUUTT against TLR4	inactive: 0.113
GCAUCAAUUUCUGGACAAATT against PPP1R12B	inactive: 0.416
CAAGGGACCUCAACAAAUUTT against RGS18	inactive: -0.0369
GAGAUUCAUUGGAGACUAUTT against RASL11A	inactive: -0.294
AGACUAUGAUGAGGCCCUATT against POMGNT1	inactive: -0.0431
CAUCAUGCCUAGUCCAGCATT against SSBP2	inactive: 0
CAACCACUGUGAUCACAGUTT against C1R	inactive: -0.541
AGUUGGGAUUAAUACUUCATT against CCL7	inactive: 0.23
GAAAAGUCGUAGUGUCAUATT against DCTN5	inactive: 0.0112
GCAUAGCCGUGCUUCUCUATT against FBXO18	inactive: -0.417

A section of the results above, for reference:
Sequence	median seed-adjusted z-score
CGCACACGUAGAGACCUUATT against PNN	active: 1.29
GCAUACGCAGGAUCCUGGATT against KRT34	inactive: 0.124
GGCUAUACCUUGACCAUAATT against LRRTM3	inactive: -0.0808
CCGGUGCUAUCACAUCUAUTT against DYRK2	inactive: 0
CAGUCAACAGUGUAUGUCATT against PAQR3	inactive: -0.0384

(further entries)

Sequence	median seed-adjusted z-score
CAACAUCUAUCGCUAUGAUTT against CCIN	inactive: 0.0472
GCGUUGACAGUGAUGCGUATT against SLC4A3	inactive: -0.7
CCCUCAAAAUAAUUCGAUUTT against TNFRSF1A	inactive: 0.00772
GCUCAUAGGUAAGAAUUGUTT against NUBP1	inactive: -0.0975
CCCUAUGAUUGUAACAAGATT against BUB1B	inactive: -0.579
CAUAGAUUUUGUACGUUUATT against ABCA13	inactive: 0.238
GGCACUUACUCAUUCAUUATT against GPR85	inactive: 0.0452
CCUUGCUUGUGAGAGCAGATT against NPAS1	inactive: -0.386
GGCUUAGAAAAUAACGUGATT against DGKB	inactive: 0.325
GGAGAGCUUUAAUACGAUUTT against GRHL2	inactive: 0.0233
GCUACAUUCUCAACUCGGATT against MATN2	inactive: 0.275
CGAGUAACAUCUGCGCAUATT against PAICS	inactive: -0.725
GGUCAAAUGCUUACCAGGATT against RGS6	inactive: -0.904
GCAUAUACUGAGGAAGACATT against GPR142	inactive: -0.0636
GGAAUGGAAUCUACCCACUTT against NRBP2	inactive: 0.093
GCAAGAUCUCUAUUGGUAUTT against ABCC4	active: -1.66
CAAUGUCGAUAUCUAUAAATT against TMPRSS2	inactive: 0.433
CAAUCAGGAUUUUCACCAUTT against RBM7	inactive: 0
GCUAGUAUGUUGUCCAAAATT against PLK2	inactive: -0.419
GCAGAGCAAUGAUAUCGCUTT against CBX5	inactive: 0.404
CAGUUGGAGUUUAUGACAATT against BBS2	inactive: 0
GGGUUAACAUGGAAGAAUUTT against ZNF461	inactive: 0.0877

Four records drawn at random from those above:
Sequence	median seed-adjusted z-score
GCAUAUACUGAGGAAGACATT against GPR142	inactive: -0.0636
GGCACUUACUCAUUCAUUATT against GPR85	inactive: 0.0452
GGAAUGGAAUCUACCCACUTT against NRBP2	inactive: 0.093
CAACAUCUAUCGCUAUGAUTT against CCIN	inactive: 0.0472

Later entries:

Sequence	median seed-adjusted z-score
GGUUGUUGCUUGGUUCGUUTT against PREPL	inactive: -0.459
GAUUGAACUGUUGACGAAATT against USP34	inactive: 0.0665
GGAACACUUUGUAACAGCATT against TYRP1	inactive: 0.173
UGAAACGGGUCGUCACGGATT against HS3ST6	inactive: 0
GGAUUUUAGUUGUAAUGCUTT against ZSCAN10	inactive: 0
GAACCAGAUCAGUAACAAATT against NLRC3	inactive: 0.323
UCUCAUCCGCGAUAUGUUATT against NR2F1	inactive: 0.259
GGAAAUCCAAGAUAAACAUTT against ZNF334	inactive: 0.611
GACCCGAGUUCAUCGCCUATT against COX6A1	inactive: -0.0917
ACAUGCAGCUGGUAAGGAUTT against MFSD4	active: -1.89
GAGCAGAACCGCAUCAUAUTT against UCN	inactive: -0.472
CACCGGUGGUCUACCAUAATT against DOCK6	inactive: 0.0378
UGUUUAUUGUAACCAAAGATT against PPCS	inactive: 0
GAAAGGACCUGUAGACGAATT against PDE6C	inactive: 0.205
ACGACAUCGUGAUUCUCCATT against ELA2	inactive: 0.586
GCAAGAUCCGAGACCAGUATT against PIK3R2	inactive: 0.421
GAGUCAAAAUCACACCGGATT against RAB8A	inactive: -0.0436
GAGACUUACAUAAACCGAUTT against ADH4	inactive: -0.0991
CCUGGUGUCUCUGUACAUATT against MC5R	inactive: 0.225
GCAGCUUAGGAACAGCAGATT against THOC4	active: -1.54

Reference: PubChem BioAssay AID1347426 (Functional Genomics Laboratory (NCATS/FGL), 2020)
